Assay results as given in patent US20260265321A1, “PEPTIDE AND POLYPEPTIDE INHIBITING THE NF-KB SIGNALING PATHWAY” (Centre National de la Recherche Scientifique, priority 2023, published 2026).
Results are given in words; binding and its absence hold for the method and conditions named. Some results given as binding are weak or reduced against the parent protein; the word gives no strength. Where a sequence is shown, tags or fusion partners need not be part of it. Values belong to the binder of their own block, whether it stands above or below them.

What was measured:
[1] = target: T1, 6×His-IKKα(10-667) EE (human) (UniProt O15111); assay: MBP pulldown, anti-His Western blot (FIG. 13A left panel, FIG. 13B)
T1 sequence (looked up): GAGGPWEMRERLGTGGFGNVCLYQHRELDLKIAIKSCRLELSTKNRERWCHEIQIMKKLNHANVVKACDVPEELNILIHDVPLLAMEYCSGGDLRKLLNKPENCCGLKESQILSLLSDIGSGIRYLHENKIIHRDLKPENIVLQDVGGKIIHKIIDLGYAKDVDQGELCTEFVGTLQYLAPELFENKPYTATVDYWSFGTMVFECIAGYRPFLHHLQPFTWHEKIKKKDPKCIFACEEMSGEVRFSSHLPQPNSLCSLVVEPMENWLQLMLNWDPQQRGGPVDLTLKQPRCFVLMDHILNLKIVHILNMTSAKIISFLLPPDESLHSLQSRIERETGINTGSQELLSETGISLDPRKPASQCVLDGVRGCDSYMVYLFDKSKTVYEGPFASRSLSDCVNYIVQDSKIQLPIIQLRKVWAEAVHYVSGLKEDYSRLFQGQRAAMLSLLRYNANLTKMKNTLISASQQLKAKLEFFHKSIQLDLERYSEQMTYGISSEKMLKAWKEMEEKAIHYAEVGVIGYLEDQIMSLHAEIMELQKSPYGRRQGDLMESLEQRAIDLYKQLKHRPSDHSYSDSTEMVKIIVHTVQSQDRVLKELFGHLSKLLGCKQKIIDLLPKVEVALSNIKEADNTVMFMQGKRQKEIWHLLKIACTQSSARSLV

[2] = target: T1, 6×His-IKKα(10-667) EE (human); assay: MBP pulldown on amylose resin, eluate on one stained SDS-PAGE gel that shows His-IKKα (10-667) and the MBP-peptides
[3] = target: T2, 6×His-IKKβ(1-669) EE (human) (UniProt O14920); assay: MBP pulldown on amylose resin with purified 6×His-IKKβ(1-669) EE, anti-His blot band quantified, % of WT, mean ± SD of three experiments
T2 sequence (looked up): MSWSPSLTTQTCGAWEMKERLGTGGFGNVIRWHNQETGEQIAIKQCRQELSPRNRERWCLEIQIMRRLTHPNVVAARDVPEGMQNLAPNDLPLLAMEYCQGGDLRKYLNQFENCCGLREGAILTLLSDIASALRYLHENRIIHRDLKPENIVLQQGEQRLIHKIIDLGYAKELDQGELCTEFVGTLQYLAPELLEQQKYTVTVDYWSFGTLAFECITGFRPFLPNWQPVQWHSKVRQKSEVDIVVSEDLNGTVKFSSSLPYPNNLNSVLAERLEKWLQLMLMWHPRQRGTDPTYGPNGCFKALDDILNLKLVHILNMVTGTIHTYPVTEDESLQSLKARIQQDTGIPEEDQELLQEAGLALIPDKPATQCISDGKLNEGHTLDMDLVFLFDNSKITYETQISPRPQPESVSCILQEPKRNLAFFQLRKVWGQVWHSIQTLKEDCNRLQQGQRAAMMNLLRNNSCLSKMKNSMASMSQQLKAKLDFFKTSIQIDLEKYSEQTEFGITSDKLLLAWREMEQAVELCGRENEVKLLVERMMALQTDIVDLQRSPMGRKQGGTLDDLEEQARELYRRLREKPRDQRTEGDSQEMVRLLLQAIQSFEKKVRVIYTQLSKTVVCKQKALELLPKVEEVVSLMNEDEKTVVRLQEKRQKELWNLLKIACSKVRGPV

[4] = target: T1, 6×His-IKKα(10-667) EE (human); assay: MBP pulldown on amylose resin with purified 6×His-IKKα(10-667) EE, anti-His blot band quantified, % of WT, mean ± SD of three experiments
[5] = target: T2, 6×His-IKKβ(1-669) EE (human); assay: MBP pulldown, purified proteins
[6] = target: T2, 6×His-IKKβ(1-669) EE (human); assay: MBP pulldown, anti-His Western blot (FIG. 13A, right panel)
[7] = target: T2, 6×His-IKKβ(1-669) EE (human); assay: MBP pulldown on amylose resin with purified 6×His-IKKβ(1-669) EE, anti-His Western blot; MBP fusions by Coomassie
[8] = target: T1, 6×His-IKKα(10-667) EE (human); assay: MBP pulldown on amylose resin with purified 6×His-IKKα(10-667) EE, anti-His Western blot; MBP fusions by Coomassie
[9] = target: T3, IKKα/β heterodimer of Strep-IKKα(10-667) EE and 6×His-IKKβ(1-669) EE (human) (UniProt O15111+O14920); assay: MBP pulldown
T3 sequence (looked up) 1: T1 sequence (looked up)
T3 sequence (looked up) 2: T2 sequence (looked up)

binding [1]: binds | binding [2]: binds
B2: MBP-IκBα 305-317 (peptide, not shown: large carriers)
chain: YDDCVFGGQRLTL

binding [1]: binds | binding [6]: binds | binding [7]: binds | binding [8]: binds
B3: MBP-IκBβ pep (peptide, not shown: large carriers)
chain: DSGDEGDEYDDIVVHSSRSQT

binding [1]: binds | binding [2]: binds | binding [6]: binds | binding [9]: binds | binding [7]: binds | binding [8]: binds
B4: synthetic IκBα pep wt (residues 297-317 of IκBα) (peptide)
peptide: EFTEDELPYDDCVFGGQRLTL
notes: HPLC purified synthetic peptide; also called IkBα pep wt; P1

binding [1]: binds | binding [2]: binds
B6: MBP-IκBα 303-317 (peptide, not shown: large carriers)
chain: LPYDDCVFGGQRLTL

binding [1]: binds | binding [8]: binds
B8: MBP-p100 pep (peptide, not shown: large carriers)
chain: PGLDGIIEYDDFKLNSSIVEP

More lines, now with the values behind:

B1: MBP-IκBα 301-317 (peptide, not shown: large carriers)
chain: DELPYDDCVFGGQRLTL
binding [1]: binds | binding [2]: binds | binding [3]: binds | binding [4]: binds | binding [5]: binds

B5: MBP-IRF7 pep (peptide, not shown: large carriers)
chain: CLSSANSLYDDIECFLMELEQ
binding [1]: binds | binding [8]: binds

B7: MBP-IκBα 301-310 (peptide, not shown: large carriers)
chain: DELPYDDCVF
binding [1]: binds | binding [2]: binds
